{"source": "patent US20220016277A1", "about": "“MACROCYCLIC COMPLEXES OF RADIONUCLIDES AND THEIR USE IN RADIOTHERAPY OF CANCER” (Cornell University, priority 2018, published 2022)", "assay": "^225Ac radiolabeling of macropa and DOTA", "format": "physicochemical", "settings": "ligand 59 μM; ^225Ac 26 kBq; 0.15 M NH4OAc pH 5.5-6; 5 min at RT"}
{"smiles": "O=C(O)c1cccc(CN2CCOCCOCCN(Cc3cccc(C(=O)O)n3)CCOCCOCC2)n1", "note": "[macropa, N,N′-bis[(6-carboxy-2-pyridil)methyl]-4,13-diaza-18-crown-6]", "values": [{"measurement": "^225Ac complexed (radio-TLC)", "value": "all"}]}
